## Results of single-concentration screens

From ChEMBL document CHEMBL3988442, “University of Dundee, Small-Polar-MMV Screening Library” (2021).

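Whole-parasite assay of Trypanosoma brucei over 72 hours; the read-out is not stated. Compounds at 30 µM. The record gives no direction; compounds that gave an IC50 in retests scored well above the rest, so higher reads as stronger inhibition. Values scatter widely below zero; nearly all retest evidence comes from the higher of the two concentrations used. Size under these conditions: about 64,000 compounds, about 940 of them at 50% or above in at least one test.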

Each number is a percent effect as filed.
How 0% and 100% were set is not recorded. Most values in the screen are low, and negative values occur.
Compounds were drawn at random from those tested, without regard to their results.

| # | structure | Percent Effect |
|---|---|---|
| 1 | `Cc1nn(C(C)C)c(C)c1S(=O)(=O)Nc1ccc(C(=O)O)c(Cl)c1` | -28.7 |
| 2 | `Cc1ncc2c(n1)CCN(C(=O)Cc1c(C)noc1C)C2` | 1.964 |
| 3 | `COCCC(=O)N1CC2(CCN(Cc3cccc(Cl)c3)CC2)C1.O=C(O)C(F)(F)F` | -25.19 |
| 4 | `Cc1ccc(NC(=O)N2CCOC(C)(c3cnn(C)c3)C2)c(C)c1` (centres undefined) | -40.46 |
| 5 | `COc1ccccc1CNC(C)c1ccc(-n2ccnc2)cc1.Cl` (centres undefined) | -21.25 |
| 6 | `CN1CCCCC1Cc1nc(Cc2cccc(F)c2)no1` (centres undefined) | -90.29 |
| 7 | `CCOc1cc(C(=O)N2CCCC(c3nc(C)c(C)s3)C2)ccn1` (centres undefined) | -4.578 |
| 8 | `Cc1ccc(C(=O)N2CCC(Oc3ccccc3)CC2)c(=O)[nH]1` | -28.58 |
| 9 | `CC(C)N(Cc1ccccc1)C(=O)NCCNC(=O)c1cccnc1` | -142.2 |
| 10 | `COC(=O)C1CCN(C(=O)c2ccc(C)c(NS(C)(=O)=O)c2)CC1` | -23.41 |
| 11 | `Cn1ncc(C(=O)O)c1C(=O)Nc1nc2ccccc2s1` | -37.09 |
| 12 | `CN1CCN(CCOc2ccc(NC(=O)c3ccoc3)cc2)CC1` | -16.6 |
| 13 | `CC(C)COc1cncc(N2CCCN(c3ncccn3)CC2)n1` | -75.77 |
| 14 | `Cc1ccc(C)c2c(O)cc(CNCCNC(=O)C(C)C)nc12` | -32.19 |
| 15 | `Cc1cnn(CC2CCCN2C(=O)c2cn(-c3ccccc3)nc2C)c1` (centres undefined) | -3.886 |
| 16 | `CC(=O)N1CCCc2ccc(S(=O)(=O)N3CCCCC3C)cc21` (centres undefined) | 11.95 |
| 17 | `COc1cnc(CN2CCN(CC(C)C)C(=O)C2C)cc1O` (centres undefined) | 10.5 |
| 18 | `Cc1cnn(CCNCC(=O)NC(C)c2ccc3c(c2)OCCO3)c1` (centres undefined) | 6.193 |
| 19 | `CC(C1CCN(Cc2c(Cl)ccc(O)c2Cl)CC1)N1CCN(C)CC1` (centres undefined) | -7.039 |
| 20 | `CCN1CC(C(=O)NCc2ccccc2-n2cccn2)CC1=O` (centres undefined) | -0.4107 |
| 21 | `O=C(c1cccs1)N1CCCC(c2cc(C(F)F)n3ncnc3n2)C1` (centres undefined) | -3.707 |
| 22 | `CCn1ccc(-c2cc(C(=O)O)n3ncc(Br)c3n2)n1` | -23.61 |
| 23 | `CC(C)n1ncc2cc(NC(=O)N3CCC(C(N)=O)C3)cnc21` (centres undefined) | -12.91 |
| 24 | `COc1c(CNCCc2c[nH]c3cc(F)ccc23)c(C(C)C)nn1C` | 15.99 |
| 25 | `[H][C@]12CC[C@]([H])(CN(c3cc(OC)ncn3)C1)N(CC1CCC1)C2=O` | -14.4 |
| 26 | `O=C(N1CCCCC1)N1CCN(CC(O)c2ccccc2)CC1` (centres undefined) | -16.46 |
| 27 | `O=C(O)C(F)(F)F.O=C(O)C(F)(F)F.[H][C@@]12CCCO[C@]1([H])[C@@H](Oc1ccccn1)CN2c1nnc(C)s1` | -39.92 |
| 28 | `CCN(Cc1cccc(C(=O)Nc2cn(C)nn2)c1)[C@H]1COC[C@@H]1O` | 1.746 |
| 29 | `O=C(Cc1ccsc1)N1CCc2ncc(Cn3cccn3)n2CC1` | -51.43 |
| 30 | `COC(=O)c1ccc(CNC2CC(=O)N(Cc3cccc(F)c3)C2)cc1` (centres undefined) | 28.25 |
| 31 | `CS(=O)(=O)NC1CCCN(Cc2ccccn2)C1` (centres undefined) | -8.032 |
| 32 | `Cc1nc(CN2CCCC(Nc3ncnc4ccsc34)C2)no1` (centres undefined) | 8.55 |
| 33 | `Cc1noc(C)c1CC(=O)N1CCC(Nc2cccnn2)CC1` | -20.34 |
| 34 | `Cc1nnc2n1CCN(C(C(=O)NC1CC1)c1ccccc1)C2` (centres undefined) | -17.54 |
| 35 | `N#Cc1ccc(NCCS(=O)(=O)N2CCc3ccccc32)nc1` | 0.9732 |
| 36 | `[H][C@@]12CCN(Cc3cc(C)on3)C[C@]1([H])OCCN(c1cccnc1)C2=O` | -26.09 |
| 37 | `Cc1c(C(=O)N2CCC3(CCCN(CC4CC4)C3=O)C2)ccn1C` (centres undefined) | -37.41 |
| 38 | `Cc1nn(C)c(C)c1C1CCCN1CC(=O)Nc1ccc(Cl)cn1` (centres undefined) | -25.08 |
| 39 | `COC(=O)c1sccc1S(=O)(=O)NCCC(O)c1ccoc1` (centres undefined) | -16.9 |
| 40 | `O=C(NC1CCC1)c1c2c(N3CCCC3)ncnc2n2ccccc12` | -6.904 |
| 41 | `O=C(c1ccc[nH]1)N1CCCC2(CCCN2Cc2cccnc2)C1` (centres undefined) | -15.76 |
| 42 | `COCc1noc(-c2cc(Cl)c3c(c2)OCO3)n1` | -5.099 |
| 43 | `CC(Oc1cccc(F)c1)C(=O)N(CC(N)=O)C1CCCC1` (centres undefined) | -45.98 |
| 44 | `O=C1NCCN(C(=O)c2cn3ccsc3n2)C1Cc1ccccc1` (centres undefined) | -18.67 |
| 45 | `Cc1nc(NC2CCN(C(=O)C3CC3)CC2)c2cnn(C)c2n1` | -14.25 |
| 46 | `c1cncc(CN2CCCn3nnc(CN4CCCCC4)c3C2)c1` | -15.33 |
| 47 | `O=C(c1ccc[nH]1)N1CCn2cc(Cn3cncn3)nc2C1` | -19.87 |
| 48 | `Cn1ncc2c(=O)[nH]c(CN3CCCc4cc(F)cc(F)c43)nc21` | -110.6 |
| 49 | `COCC1CN(C(=O)Cc2cccs2)Cc2nnn(C)c21` (centres undefined) | 0.1744 |
| 50 | `Cc1cc(C)n(CC2CCCN2C(=O)c2ccc3c(c2)nnn3C)n1` (centres undefined) | -61.09 |
| 51 | `CCOC(=O)N1CC2(CCNCC2)c2cc(Cl)ccc21.Cl` | 80.77 |
| 52 | `CCc1ccc(C2CCCN2C(=O)NCC(=O)NCC(C)C)o1` (centres undefined) | -43.64 |
| 53 | `c1ccc(-c2nc(CN3CCCC3Cn3cncn3)co2)cc1` (centres undefined) | -2.26 |
| 54 | `Nc1cc2c(nn1)CCN(C(=O)c1csc(-c3ccco3)n1)C2` | 17.06 |
| 55 | `NS(=O)(=O)N1CCc2ccc(NC(=O)Cc3ccc(F)cc3)cc21` | -78.52 |
| 56 | `Cc1ccc(NC2CCN(C(=O)COCC(F)(F)F)CC2)nn1` | -8.169 |
| 57 | `CC(C)(CNC(=O)c1ccc(Cl)o1)NC(=O)OC(C)(C)C` | -25.28 |
| 58 | `COCCC1COC2(CCN(C(=O)C3CCCC3)CC2)C1` (centres undefined) | -12.03 |
| 59 | `O=C(CN1CCS(=O)(=O)CC1)NCc1cccc(Br)c1` | -77.1 |
| 60 | `Cc1cccc(C(=O)N2CCCN(CCc3scnc3C)CC2)c1` | -51.74 |
| 61 | `O=C(O)C(F)(F)F.[H][C@]12CCC[C@@]1(COCc1ccccn1)CN(S(=O)(=O)C1CC1)C2` | -3.657 |
| 62 | `CC(C)NC(=O)N1CCN(C(=O)c2ccco2)CC2(CC(=O)N(C)C2)C1` (centres undefined) | -4.821 |
| 63 | `CCc1nc(C(=O)N2CCN(C)CC2)nn1-c1ccccc1Cl` | -14.68 |
| 64 | `CCOCc1ccccc1NC(=O)NC1CCN(C2CCCC2)C1` (centres undefined) | 99.06 |
| 65 | `COCCn1ccc(=O)c(OCC(=O)Nc2ccc(Br)cc2)c1C` | 17.79 |
| 66 | `COc1cccc(-c2ccnc(C3CCNCC3)c2)c1` | -11.36 |
| 67 | `O=C(O)C(F)(F)F.[H][C@]12CCN(CC(C)C)CC[C@@]1([H])S(=O)(=O)CCN2C(=O)c1ccccc1` | -28.72 |
| 68 | `CCc1cnccc1C(=O)NC1CCN(Cc2ccccc2F)CC1` | -15.49 |
| 69 | `CCc1nnc(Nc2cc(C)nc(C3CN(C(C)=O)CCO3)c2)s1` (centres undefined) | 20.99 |
| 70 | `CCOc1ccccc1OCC(=O)NCc1ncc(C)c(OC)c1C` | -18.11 |
| 71 | `c1nc(N2CCCC(Cn3cncn3)C2)c2sccc2n1` (centres undefined) | 1.361 |
| 72 | `CC(C)c1cc(COCCCC(=O)O)no1` | -22.57 |
| 73 | `CCOC(=O)C1CCN(c2nccc(-n3nc(C)cc3C)n2)CC1` | -11.3 |
| 74 | `Cc1cnn(C2CCCN(C(=O)c3ccc(OCC4CC4)nc3)C2)c1` (centres undefined) | -4.157 |
| 75 | `CCNC(=O)C1CCCN(c2ccc3ccc(F)cc3n2)C1` (centres undefined) | -13.58 |

Repeated from the top, 9 entries:

structure,Percent Effect
Cc1nn(C(C)C)c(C)c1S(=O)(=O)Nc1ccc(C(=O)O)c(Cl)c1,-28.7
Cc1ncc2c(n1)CCN(C(=O)Cc1c(C)noc1C)C2,1.964
COCCC(=O)N1CC2(CCN(Cc3cccc(Cl)c3)CC2)C1.O=C(O)C(F)(F)F,-25.19
Cc1ccc(NC(=O)N2CCOC(C)(c3cnn(C)c3)C2)c(C)c1 (centres undefined),-40.46
COc1ccccc1CNC(C)c1ccc(-n2ccnc2)cc1.Cl (centres undefined),-21.25
CN1CCCCC1Cc1nc(Cc2cccc(F)c2)no1 (centres undefined),-90.29
CCOc1cc(C(=O)N2CCCC(c3nc(C)c(C)s3)C2)ccn1 (centres undefined),-4.578
Cc1ccc(C(=O)N2CCC(Oc3ccccc3)CC2)c(=O)[nH]1,-28.58
CC(C)N(Cc1ccccc1)C(=O)NCCNC(=O)c1cccnc1,-142.2